According to publication PMC11122405:
Numbering of substitutions follows the chain as printed. These are yes or no findings as the source states them, for the method shown. In cells and extracts the contact can be indirect. Some binding calls cover weakened binding; strength is not graded here. Where a sequence is shown, tags or fusion partners need not be part of it.

How the values were obtained:
Assay in all cases: FRET or BRET; FRET index by confocal microscopy (FV10i Olympus, ImageJ) in single Flp-In T-REx HEK293 cells coexpressing LPA3-GFP (WT or mutant) and β-arrestin 2-mCherry; baseline, or 1 µM LPA or 1 µM PMA for up to 60 min
[1] = molecular target: T1, wild-type (WT) LPA3-GFP receptor construct (UniProt Q9UBY5)
T1 sequence: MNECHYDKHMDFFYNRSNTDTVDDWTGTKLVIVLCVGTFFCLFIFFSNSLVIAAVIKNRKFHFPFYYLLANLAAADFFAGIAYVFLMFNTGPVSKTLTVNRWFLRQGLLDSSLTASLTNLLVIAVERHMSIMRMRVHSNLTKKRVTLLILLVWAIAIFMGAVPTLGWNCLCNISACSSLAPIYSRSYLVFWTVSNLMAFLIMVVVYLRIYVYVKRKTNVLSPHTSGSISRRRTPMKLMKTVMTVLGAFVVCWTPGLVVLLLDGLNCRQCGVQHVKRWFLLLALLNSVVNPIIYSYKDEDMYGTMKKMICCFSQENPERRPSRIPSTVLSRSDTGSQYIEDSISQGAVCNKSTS

[2] = molecular target: T2, LPA3 receptor IL3 mutant (S221A, T224A, S225A, S229A), GFP-tagged (UniProt Q9UBY5)
T2 sequence: T1 sequence with S221A, T224A, S225A, S229A

[3] = molecular target: T3, LPA3 receptor Ctail mutant (S321A, S325A, S331A, T333V, S335A, Y337F, S343A), GFP-tagged (UniProt Q9UBY5)
T3 sequence: T1 sequence with S321A, S325A, S331A, T333V, S335A, Y337F, S343A

[4] = molecular target: T4, LPA3 receptor IL3/Ctail mutant (all sites of the IL3 and Ctail mutants substituted), GFP-tagged (UniProt Q9UBY5)
T4 sequence: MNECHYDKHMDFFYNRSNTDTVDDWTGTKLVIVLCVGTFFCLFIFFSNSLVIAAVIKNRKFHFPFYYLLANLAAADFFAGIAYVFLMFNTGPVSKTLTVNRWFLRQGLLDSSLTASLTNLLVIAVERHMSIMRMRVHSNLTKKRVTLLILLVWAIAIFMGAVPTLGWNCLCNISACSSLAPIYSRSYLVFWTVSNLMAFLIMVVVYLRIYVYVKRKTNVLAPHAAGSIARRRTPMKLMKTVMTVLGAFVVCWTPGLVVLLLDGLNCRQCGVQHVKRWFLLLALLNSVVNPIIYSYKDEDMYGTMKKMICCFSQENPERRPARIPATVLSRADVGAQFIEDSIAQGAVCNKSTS

Measured: binding

β-arrestin 2 tagged with the mCherry protein (from UniProt P32121 1-409)
binds: all assays above
